Values from PubChem BioAssay AID1259405 (NCATS, 2018)

Aim: 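Mouse-designed siRNAs used to find CHO productivity engineering targets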 (primary screen)
Cell system: Chinese hamster CHO-K1 ovary cells with stable secreted eGFP expression
Reagents: single siRNA against mouse genes, 0.8 pmol siRNA per well (2 µl of 400 nM stock)
Time to read-out: 3 days
Detection: 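Per-well intracellular GFP measured by laser scanning cytometry, plus viability from ATP luminescence, each relative to plate median of non-targeting control wells, in %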
Scale: GFP, % of control: higher = more GFP per well, higher productivity; viability (ATP), % of control: higher = more viable cells (more ATP)
Active means: 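Called active when intracellular GFP, relative to negative control, is at or above 120%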
The whole screen tested about 50,000 reagents; this is a random part of them. About 4,000 of all reagents (8%) count as active. 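Mouse siRNA library applied to hamster cells; one well for each siRNA.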 Unmarked entries are inactive. The numbers tell different reagents against one gene apart. Reagent sequences are not shown.

Gene | siRNA no. | GFP, % of control | viability (ATP), % of control
Sirpb1a (GeneID 320832) | 1 | 118 | 74.9
Sirpb1a (GeneID 320832) | 2 | 71.1 | 68.6
Sirpb1a (GeneID 320832) | 3 | 76 | 63.2
Mab21l4 (GeneID 71874) | 1 | 73.4 | 78.7
Mab21l4 (GeneID 71874) | 2 | 20.7 | 25.9
Mab21l4 (GeneID 71874) | 3 | 82.9 | 96.8
Pspn (GeneID 19197) | 1 | 54.6 | 71.9
Pspn (GeneID 19197) | 2 | 111 | 95.1
Pspn (GeneID 19197) | 3 | 85.4 | 72.8
Dalrd3 (GeneID 67789) | 1 | 61.4 | 85.6
Dalrd3 (GeneID 67789) | 2 | 105 | 83.3
Dalrd3 (GeneID 67789) | 3 | 101 | 131
Rhot1 (GeneID 59040) | 1 | 83.7 | 86.9
Rhot1 (GeneID 59040) | 2 | 68.9 | 72.4
Rhot1 (GeneID 59040) | 3 | 164 (active) | 62
Or4k37 (GeneID 257979) | 1 | 67 | 63.8
Or4k37 (GeneID 257979) | 2 | 79.2 | 53.6
Or4k37 (GeneID 257979) | 3 | 99.6 | 83.3
Prss30 (GeneID 30943) | 1 | 67.5 | 85.1
Prss30 (GeneID 30943) | 2 | 55.9 | 74.8
Prss30 (GeneID 30943) | 3 | 73.6 | 94
Alg5 (GeneID 66248) | 1 | 72 | 98.3
Alg5 (GeneID 66248) | 2 | 38.4 | 95.2
Alg5 (GeneID 66248) | 3 | 80.6 | 129
Mfap5 (GeneID 50530) | 1 | 62.5 | 66.8
Mfap5 (GeneID 50530) | 2 | 50.8 | 70.1
Mfap5 (GeneID 50530) | 3 | 82.2 | 48.1
Srd5a2 (GeneID 94224) | 1 | 74.3 | 100
Srd5a2 (GeneID 94224) | 2 | 82.7 | 48.4
Srd5a2 (GeneID 94224) | 3 | 93.4 | 101
Tipin (GeneID 66131) | 1 | 89.8 | 83
Tipin (GeneID 66131) | 2 | 65.1 | 61.7
Tipin (GeneID 66131) | 3 | 95.9 | 92.2
C1qtnf2 (GeneID 69183) | 1 | 40.7 | 47.6
C1qtnf2 (GeneID 69183) | 2 | 86.9 | 97.7
C1qtnf2 (GeneID 69183) | 3 | 65.9 | 61.4
Tcl1 (GeneID 21432) | 1 | 106 | 61.4
Tcl1 (GeneID 21432) | 2 | 102 | 84.2
Tcl1 (GeneID 21432) | 3 | 82.9 | 73.3
Or6c69c (GeneID 258666) | 1 | 105 | 88.9
Or6c69c (GeneID 258666) | 2 | 69.1 | 65.2
Or6c69c (GeneID 258666) | 3 | 56.6 | 64.6
Six4 (GeneID 20474) | 1 | 80.5 | 99.5
Six4 (GeneID 20474) | 2 | 74.3 | 81.5
Six4 (GeneID 20474) | 3 | 67.9 | 108
Armc12 (GeneID 67645) | 1 | 63.5 | 84.2
Armc12 (GeneID 67645) | 2 | 56.3 | 34.7
Armc12 (GeneID 67645) | 3 | 84.6 | 95.8
Vmn1r172 (GeneID 81010) | 1 | 100 | 94.4
Vmn1r172 (GeneID 81010) | 2 | 49.5 | 55.1
Vmn1r172 (GeneID 81010) | 3 | 73.5 | 35.6
Rbm12 (GeneID 75710) | 1 | 81.6 | 50.8
Rbm12 (GeneID 75710) | 2 | 88.7 | 76.6
Rbm12 (GeneID 75710) | 3 | 100 | 77.8
Or8k23 (GeneID 259020) | 1 | 96 | 46.4
Or8k23 (GeneID 259020) | 2 | 138 (active) | 62.4
Or8k23 (GeneID 259020) | 3 | 85.7 | 91.3
Rdh7 (GeneID 54150) | 1 | 55.2 | 56.8
Rdh7 (GeneID 54150) | 2 | 84.7 | 93.3
Rdh7 (GeneID 54150) | 3 | 34.4 | 56.9
Timp3 (GeneID 21859) | 1 | 37.9 | 81.3
Timp3 (GeneID 21859) | 2 | 66.6 | 76.5
Timp3 (GeneID 21859) | 3 | 128 (active) | 73.4
Ttc27 (GeneID 74196) | 1 | 74.1 | 82.3
Ttc27 (GeneID 74196) | 2 | 32.6 | 23.5
Ttc27 (GeneID 74196) | 3 | 62.9 | 73.1
Ldlr (GeneID 16835) | 1 | 61.1 | 46.6
Ldlr (GeneID 16835) | 2 | 129 (active) | 83
Ldlr (GeneID 16835) | 3 | 57.5 | 65.1
Setd1b (GeneID 208043) | 1 | 67.5 | 22.3
Setd1b (GeneID 208043) | 2 | 54.3 | 111
Setd1b (GeneID 208043) | 3 | 65.9 | 69.4
Birc3 (GeneID 11796) | 1 | 118 | 116
Birc3 (GeneID 11796) | 2 | 85.2 | 116
Emx2 (GeneID 13797) | 1 | 109 | 114
Emx2 (GeneID 13797) | 2 | 145 (active) | 117
Emx2 (GeneID 13797) | 3 | 60 | 61.4
Emx2 (GeneID 13797) | 4 | 108 | 83.7
Emx2 (GeneID 13797) | 5 | 91.5 | 71.7
Emx2 (GeneID 13797) | 6 | 123 (active) | 89.1
Pex16 (GeneID 18633) | 1 | 64.4 | 75.2
Pex16 (GeneID 18633) | 2 | 180 (active) | 35
Pex16 (GeneID 18633) | 3 | 90.8 | 78.2
Sall4 (GeneID 99377) | 1 | 87.1 | 74.5
Sall4 (GeneID 99377) | 2 | 86.2 | 67.6
Sall4 (GeneID 99377) | 3 | 99.8 | 94.7

In a second layout: 9 of the entries above
| Gene | siRNA no. | GFP, % of control | viability (ATP), % of control |
| --- | --- | --- | --- |
| Birc3 (GeneID 11796) | 2 | 85.2 | 116 |
| Emx2 (GeneID 13797) | 1 | 109 | 114 |
| Emx2 (GeneID 13797) | 2 | 145 (active) | 117 |
| Emx2 (GeneID 13797) | 3 | 60 | 61.4 |
| Emx2 (GeneID 13797) | 4 | 108 | 83.7 |
| Emx2 (GeneID 13797) | 5 | 91.5 | 71.7 |
| Emx2 (GeneID 13797) | 6 | 123 (active) | 89.1 |
| Pex16 (GeneID 18633) | 1 | 64.4 | 75.2 |
| Pex16 (GeneID 18633) | 2 | 180 (active) | 35 |
